Test results: patent US20240352066A1 (priority 2021, published 2024)
Strings that start with PEPTIDE1 are HELM notation: dots part the residues, brackets hold end groups and non-standard residues. [ ]: non-standard residue; d: D form. The star is where a group is joined. Gly(N-2-aminoethyl) = NCCNCC(=O)O; Palmitoyl = CCCCCCCCCCCCCCCC(=O)*; Myristoyl = CCCCCCCCCCCCCC(=O)*; Gly(N-cHex) = O=C(O)CNC1CCCCC1; Nlys = NCCCCNCC(=O)O

Assay: general procedure: Fmoc solid-phase peptide synthesis; Fmoc protected polystyrene Rink Amide resin; bromoacetic acid (2 M) / diisopropylcarbodiimide (3.2 M), submonomer method
Conditions: whole synthesis

Substance	isolated yield	final HPLC purity (HPLC)
PEPTIDE1{[Ntri].[Ntrp].[Nlys].[Nae].[Ntrp].[am]}$$$$V2.0	1.7%	–
PEPTIDE1{[Ntri].[Nspe].[Nlys].[Nae].[Nspe].[am]}$$$$V2.0	3.0%	–
PEPTIDE1{[Ntri].[Ncha].[Nlys(Me)3].[Nae(Me)3].[Ncha].[am]}$$$$V2.0	6.7%	–
PEPTIDE1{[Ntri].[Nnap].[Nlys].[Nae].[Nnap].[am]}$$$$V2.0	7.1%	–
PEPTIDE1{[Ntri].[Ntma].[Nlys].[Nae].[Ntma].[am]}$$$$V2.0	5.8%	–
PEPTIDE1{[Ntri].[Nphe].[Nlys].[Nae].[Nphe].[am]}$$$$V2.0	5.0%	–
PEPTIDE1{[Ntri].[Npfb].[Nlys].[Nae].[Npfb].[am]}$$$$V2.0	8.6%	–
PEPTIDE1{[Ntri].[Nai].[Nlys].[Nae].[Nai].[am]}$$$$V2.0	4.4%	–
PEPTIDE1{[Ntri].[Npib].[Nlys].[Nae].[Npib].[am]}$$$$V2.0	70%	–
Myristoyl-G[Gly(N-cHex)][Nlys][Gly(N-2-aminoethyl)][Gly(N-cHex)]-NH2 (SMILES CCCCCCCCCCCCCC(=O)NCC(=O)N(CC(=O)N(CCCCN)CC(=O)N(CCN)CC(=O)N(CC(N)=O)C1CCCCC1)C1CCCCC1)	3.4%	–
Palmitoyl-G[Gly(N-cHex)][Nlys][Gly(N-2-aminoethyl)][Gly(N-cHex)]-NH2 (SMILES CCCCCCCCCCCCCCCC(=O)NCC(=O)N(CC(=O)N(CCCCN)CC(=O)N(CCN)CC(=O)N(CC(N)=O)C1CCCCC1)C1CCCCC1)	34.4%	–
PEPTIDE1{[Ndoa].[Ncha].[Nlys].[Nae].[Ncha].[am]}$$$$V2.0	8.7%	–
PEPTIDE1{[Ntri].[Npbb].[Nlys].[Nae].[Npbb].[am]}$$$$V2.0	55%	–
PEPTIDE1{[Ntri].[Ncha].[Nlys].[Nae].[Ncha].[am]}$$$$V2.0	–	>95%
PEPTIDE1{[Ntri].[Npcb].[Nlys].[Nae].[Npcb].[am]}$$$$V2.0	60.8%	–
PEPTIDE1{[Ntri].[Nfur].[Nlys].[Nae].[Nfur].[am]}$$$$V2.0	15.7%	–
PEPTIDE1{[Ntri].[Ncha].[Nlys].[Nlys].[Ncha].[am]}$$$$V2.0	58.7%	–
PEPTIDE1{[Ndha].[Ncha].[Nlys].[Nae].[Ncha].[am]}$$$$V2.0	23.8%	–
